Results from patent US5747235A, “Silver halide light sensitive emulsion layer having enhanced photographic sensitivity” (Eastman Kodak Company, priority 1996, dated 1998).

Assay: Example 5: photographic speed and fog, 365 nm exposure, fragmenting vs non-fragmenting one-electron donors, emulsion T-2
Conditions: Table V
Experimental: For photographic evaluation, each of the coating strips was exposed for 0.1 sec to a 365 nm emission line of a Hg lamp filtered through a Kodak Wratten filter number 18A and a step wedge ranging in density from 0 to 4 density units in 0.2 density steps. The exposed film strips were developed for 6 min in Kodak Rapid X-ray Developer (KRX). S365, relative sensitivity at 365 nm, was evaluated at a density of 0.2 units above fog.
An AgBrI tabular silver halide emulsion (Emulsion T-2) was prepared containing 4.05% total I distributed such that the central portion of the emulsion grains contained 1.5% I and the perimeter area contained substantially higher I, as described by Chang et. al., U.S. Pat. No. 5,314,793. […] This emulsion was precipitated using deionized gelatin. The emulsion was sulfur sensitized by adding 8.5×10^-6 mole 1,3-dicarboxymethyl-1,3-dimethyl-2-thiourea /mole Ag at 40° C.; the temperature was then raised to 60° C. at a rate of 5° C./3 min and the emulsions held for 20 min before cooling to 40° C. The chemically sensitized emulsion was then used to prepare coatings containing the fragmentable two-electron donor compounds. […] Where present, the blue sensitizing dye D-I or the red sensitizing dye D-II were added from methanol solution to the emulsion at 40° C. after the chemical sensitization and disulfocatechol addition. […]

CCSCCN(CCSCC)c1ccc(CC(=O)O)cc1 [Compound S-17, Sodium 2-(4-N,N-bis(ethylthioethyl)aminophenyl)acetate]
Reactivity of XY+.: fragments

CCSCCNC(=O)CCN(CC)c1ccc(CC(=O)O)cc1 [Compound S-18]
Reactivity of XY+.: fragments
